Assay results from article PMC10181827.
These are yes or no findings as the source states them, for the method shown. A result given as binding can be weak or reduced; the word gives no strength. For some of these results: Sequences can lack the tags named with a protein. For some of these results: In cells and extracts the contact can be indirect.

Protein sequences, listed by entry. Tags and fused reporters are not part of them. Lines headed by an entry give the natural chain unless they say otherwise; changes in a name come on top.
UniProt Q69ZS8: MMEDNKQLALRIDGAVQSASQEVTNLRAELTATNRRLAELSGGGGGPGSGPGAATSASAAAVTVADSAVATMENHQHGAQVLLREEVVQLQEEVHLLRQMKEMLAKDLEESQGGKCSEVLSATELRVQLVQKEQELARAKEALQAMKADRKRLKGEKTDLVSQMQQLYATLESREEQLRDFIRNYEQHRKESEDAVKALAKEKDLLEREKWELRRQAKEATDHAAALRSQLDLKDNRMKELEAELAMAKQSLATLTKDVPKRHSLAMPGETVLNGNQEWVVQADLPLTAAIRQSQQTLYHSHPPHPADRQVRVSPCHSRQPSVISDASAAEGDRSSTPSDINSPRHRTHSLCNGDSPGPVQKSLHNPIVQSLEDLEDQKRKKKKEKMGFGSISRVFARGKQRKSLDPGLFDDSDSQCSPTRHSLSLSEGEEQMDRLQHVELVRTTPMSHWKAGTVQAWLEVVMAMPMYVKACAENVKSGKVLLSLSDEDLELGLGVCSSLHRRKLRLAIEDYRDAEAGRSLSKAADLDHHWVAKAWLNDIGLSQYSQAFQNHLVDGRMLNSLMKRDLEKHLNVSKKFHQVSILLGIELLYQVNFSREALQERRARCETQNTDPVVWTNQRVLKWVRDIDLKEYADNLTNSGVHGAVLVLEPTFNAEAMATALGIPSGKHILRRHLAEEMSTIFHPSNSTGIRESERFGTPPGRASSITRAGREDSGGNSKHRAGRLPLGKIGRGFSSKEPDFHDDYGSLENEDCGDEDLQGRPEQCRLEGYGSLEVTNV
UniProt O08788: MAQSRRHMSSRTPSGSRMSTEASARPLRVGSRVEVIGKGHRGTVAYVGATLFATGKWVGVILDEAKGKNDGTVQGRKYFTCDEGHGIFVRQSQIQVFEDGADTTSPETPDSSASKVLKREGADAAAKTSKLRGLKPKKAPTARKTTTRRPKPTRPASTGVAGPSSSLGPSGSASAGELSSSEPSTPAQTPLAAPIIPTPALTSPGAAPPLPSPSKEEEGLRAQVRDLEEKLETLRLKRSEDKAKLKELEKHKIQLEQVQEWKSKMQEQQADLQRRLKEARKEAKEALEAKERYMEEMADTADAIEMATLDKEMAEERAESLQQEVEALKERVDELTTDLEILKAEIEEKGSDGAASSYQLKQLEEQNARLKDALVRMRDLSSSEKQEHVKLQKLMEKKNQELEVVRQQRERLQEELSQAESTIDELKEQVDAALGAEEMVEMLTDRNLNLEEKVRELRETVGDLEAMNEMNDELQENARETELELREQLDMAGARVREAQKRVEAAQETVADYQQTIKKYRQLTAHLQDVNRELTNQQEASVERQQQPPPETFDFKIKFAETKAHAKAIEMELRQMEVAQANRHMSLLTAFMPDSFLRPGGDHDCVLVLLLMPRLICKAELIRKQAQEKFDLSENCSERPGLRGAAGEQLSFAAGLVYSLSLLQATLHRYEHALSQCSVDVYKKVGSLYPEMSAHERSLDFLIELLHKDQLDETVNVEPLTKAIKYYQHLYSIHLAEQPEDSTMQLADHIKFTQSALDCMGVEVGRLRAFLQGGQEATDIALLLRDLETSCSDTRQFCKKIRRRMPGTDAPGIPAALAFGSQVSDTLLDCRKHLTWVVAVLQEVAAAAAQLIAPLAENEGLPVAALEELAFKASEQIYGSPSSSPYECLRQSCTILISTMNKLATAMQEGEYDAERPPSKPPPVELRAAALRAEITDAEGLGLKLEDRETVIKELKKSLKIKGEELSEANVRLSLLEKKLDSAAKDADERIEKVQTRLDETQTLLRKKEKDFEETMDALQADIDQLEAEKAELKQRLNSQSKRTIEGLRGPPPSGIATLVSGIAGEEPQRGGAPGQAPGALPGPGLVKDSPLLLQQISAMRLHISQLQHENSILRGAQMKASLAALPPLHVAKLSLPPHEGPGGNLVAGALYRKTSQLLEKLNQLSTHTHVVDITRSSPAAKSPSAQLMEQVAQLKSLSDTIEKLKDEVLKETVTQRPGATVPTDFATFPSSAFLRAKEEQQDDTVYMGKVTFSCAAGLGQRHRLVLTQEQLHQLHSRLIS
UniProt P22892: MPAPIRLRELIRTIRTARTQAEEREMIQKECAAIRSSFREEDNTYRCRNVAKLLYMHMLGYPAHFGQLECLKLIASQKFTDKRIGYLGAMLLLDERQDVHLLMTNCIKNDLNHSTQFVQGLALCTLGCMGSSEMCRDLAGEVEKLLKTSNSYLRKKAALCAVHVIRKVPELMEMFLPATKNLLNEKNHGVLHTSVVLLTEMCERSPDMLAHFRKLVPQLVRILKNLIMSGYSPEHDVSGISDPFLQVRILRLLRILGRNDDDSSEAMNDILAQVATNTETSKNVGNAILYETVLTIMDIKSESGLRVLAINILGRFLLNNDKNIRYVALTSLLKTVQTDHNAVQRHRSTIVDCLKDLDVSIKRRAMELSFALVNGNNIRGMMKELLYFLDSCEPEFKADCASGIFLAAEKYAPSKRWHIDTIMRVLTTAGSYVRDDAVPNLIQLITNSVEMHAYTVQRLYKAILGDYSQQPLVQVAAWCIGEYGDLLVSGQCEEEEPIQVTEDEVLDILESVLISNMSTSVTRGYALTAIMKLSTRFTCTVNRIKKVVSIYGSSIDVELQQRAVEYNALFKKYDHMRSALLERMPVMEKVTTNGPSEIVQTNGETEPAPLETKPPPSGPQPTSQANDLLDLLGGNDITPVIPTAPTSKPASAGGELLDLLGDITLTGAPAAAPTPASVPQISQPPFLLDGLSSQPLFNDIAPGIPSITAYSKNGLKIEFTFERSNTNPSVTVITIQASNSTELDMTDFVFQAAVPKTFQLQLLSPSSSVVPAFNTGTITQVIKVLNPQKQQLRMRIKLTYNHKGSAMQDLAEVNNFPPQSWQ

Assays:
[1] = target: endogenous kazrin (mouse (endogenous in MEF)) (UniProt Q69ZS8); test: co-IP; endogenous; WT or kazKO MEF extracts with rabbit IgGs against kazrin C (methods: C-terminus, aa 161-327; legends: mixed sera against the N- and C-terminal portions) pre-bound to Protein A-Sepharose, or pre-immune IgGs; immunoblot
GST-EHD1 = target: T1, GST-EHD1 (UniProt Q9H4M9); test: pull-down; glutathione-Sepharose beads coated with 0.5 μg GST fusion protein, 2 nM eluted 6xHis-kazrin C in 1 ml PBS with 0.2% Triton-X100 and 0.5% BSA, 1 hr at 4 °C; immunoblot with anti-kazrin (Figures 3C and 5J); both purified
T1 sequence: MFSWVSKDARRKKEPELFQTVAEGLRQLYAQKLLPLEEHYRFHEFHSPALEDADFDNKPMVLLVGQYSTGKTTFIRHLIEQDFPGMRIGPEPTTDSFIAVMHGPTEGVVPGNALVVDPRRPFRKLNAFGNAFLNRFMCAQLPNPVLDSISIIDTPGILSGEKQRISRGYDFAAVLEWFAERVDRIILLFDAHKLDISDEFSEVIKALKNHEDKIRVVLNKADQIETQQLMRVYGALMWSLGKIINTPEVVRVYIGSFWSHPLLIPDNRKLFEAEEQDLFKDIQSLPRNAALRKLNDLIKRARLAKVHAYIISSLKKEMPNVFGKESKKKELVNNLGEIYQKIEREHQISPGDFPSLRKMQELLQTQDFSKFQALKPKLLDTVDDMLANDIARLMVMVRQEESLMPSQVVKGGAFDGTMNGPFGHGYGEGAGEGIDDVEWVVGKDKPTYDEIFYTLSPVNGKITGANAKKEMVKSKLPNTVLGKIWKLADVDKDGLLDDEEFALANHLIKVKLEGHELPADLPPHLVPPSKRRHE

GST-EHD3 = target: T2, GST-EHD3 (UniProt Q9NZN3); test: as above
T2 sequence: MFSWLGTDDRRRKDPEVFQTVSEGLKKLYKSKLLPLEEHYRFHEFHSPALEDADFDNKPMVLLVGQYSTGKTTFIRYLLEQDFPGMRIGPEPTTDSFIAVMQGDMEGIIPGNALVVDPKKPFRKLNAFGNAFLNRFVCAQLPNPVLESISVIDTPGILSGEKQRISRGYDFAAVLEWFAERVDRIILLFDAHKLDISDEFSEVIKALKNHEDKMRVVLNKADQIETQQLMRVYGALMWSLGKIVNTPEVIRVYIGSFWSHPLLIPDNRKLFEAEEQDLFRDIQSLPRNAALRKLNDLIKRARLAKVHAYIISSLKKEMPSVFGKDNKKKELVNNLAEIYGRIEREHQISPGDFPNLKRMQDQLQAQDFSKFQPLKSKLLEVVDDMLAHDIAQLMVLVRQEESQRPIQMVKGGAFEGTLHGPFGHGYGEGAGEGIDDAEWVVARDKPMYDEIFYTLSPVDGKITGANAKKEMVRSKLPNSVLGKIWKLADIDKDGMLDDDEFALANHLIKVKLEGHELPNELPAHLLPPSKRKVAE

| binding (GST-EHD1) | binding (GST-EHD3) | Substance | binding [1] |
| --- | --- | --- | --- |
| – | – | p150-glued (from UniProt O08788 1-1281) | binds |
| – | – | γ-adaptin (from UniProt P22892 1-822) | binds |
| binds | binds | 6xHis-kazrin C (human) | – |
